This note sets out measurements from the supplement of paper PMC6411743.

Chains of the proteins cited; added tags and fusions are not shown. Lines headed by an entry give the natural chain unless they say otherwise; changes in a name come on top.
UniProt Q9UKA8, whole entry: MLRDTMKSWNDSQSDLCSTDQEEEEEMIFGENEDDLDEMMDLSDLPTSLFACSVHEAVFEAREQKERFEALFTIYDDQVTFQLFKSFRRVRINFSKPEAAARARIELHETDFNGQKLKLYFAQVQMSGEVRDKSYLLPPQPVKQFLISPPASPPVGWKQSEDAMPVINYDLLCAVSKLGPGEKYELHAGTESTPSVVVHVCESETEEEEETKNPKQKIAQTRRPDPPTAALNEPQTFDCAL
UniProt Q9UKA4: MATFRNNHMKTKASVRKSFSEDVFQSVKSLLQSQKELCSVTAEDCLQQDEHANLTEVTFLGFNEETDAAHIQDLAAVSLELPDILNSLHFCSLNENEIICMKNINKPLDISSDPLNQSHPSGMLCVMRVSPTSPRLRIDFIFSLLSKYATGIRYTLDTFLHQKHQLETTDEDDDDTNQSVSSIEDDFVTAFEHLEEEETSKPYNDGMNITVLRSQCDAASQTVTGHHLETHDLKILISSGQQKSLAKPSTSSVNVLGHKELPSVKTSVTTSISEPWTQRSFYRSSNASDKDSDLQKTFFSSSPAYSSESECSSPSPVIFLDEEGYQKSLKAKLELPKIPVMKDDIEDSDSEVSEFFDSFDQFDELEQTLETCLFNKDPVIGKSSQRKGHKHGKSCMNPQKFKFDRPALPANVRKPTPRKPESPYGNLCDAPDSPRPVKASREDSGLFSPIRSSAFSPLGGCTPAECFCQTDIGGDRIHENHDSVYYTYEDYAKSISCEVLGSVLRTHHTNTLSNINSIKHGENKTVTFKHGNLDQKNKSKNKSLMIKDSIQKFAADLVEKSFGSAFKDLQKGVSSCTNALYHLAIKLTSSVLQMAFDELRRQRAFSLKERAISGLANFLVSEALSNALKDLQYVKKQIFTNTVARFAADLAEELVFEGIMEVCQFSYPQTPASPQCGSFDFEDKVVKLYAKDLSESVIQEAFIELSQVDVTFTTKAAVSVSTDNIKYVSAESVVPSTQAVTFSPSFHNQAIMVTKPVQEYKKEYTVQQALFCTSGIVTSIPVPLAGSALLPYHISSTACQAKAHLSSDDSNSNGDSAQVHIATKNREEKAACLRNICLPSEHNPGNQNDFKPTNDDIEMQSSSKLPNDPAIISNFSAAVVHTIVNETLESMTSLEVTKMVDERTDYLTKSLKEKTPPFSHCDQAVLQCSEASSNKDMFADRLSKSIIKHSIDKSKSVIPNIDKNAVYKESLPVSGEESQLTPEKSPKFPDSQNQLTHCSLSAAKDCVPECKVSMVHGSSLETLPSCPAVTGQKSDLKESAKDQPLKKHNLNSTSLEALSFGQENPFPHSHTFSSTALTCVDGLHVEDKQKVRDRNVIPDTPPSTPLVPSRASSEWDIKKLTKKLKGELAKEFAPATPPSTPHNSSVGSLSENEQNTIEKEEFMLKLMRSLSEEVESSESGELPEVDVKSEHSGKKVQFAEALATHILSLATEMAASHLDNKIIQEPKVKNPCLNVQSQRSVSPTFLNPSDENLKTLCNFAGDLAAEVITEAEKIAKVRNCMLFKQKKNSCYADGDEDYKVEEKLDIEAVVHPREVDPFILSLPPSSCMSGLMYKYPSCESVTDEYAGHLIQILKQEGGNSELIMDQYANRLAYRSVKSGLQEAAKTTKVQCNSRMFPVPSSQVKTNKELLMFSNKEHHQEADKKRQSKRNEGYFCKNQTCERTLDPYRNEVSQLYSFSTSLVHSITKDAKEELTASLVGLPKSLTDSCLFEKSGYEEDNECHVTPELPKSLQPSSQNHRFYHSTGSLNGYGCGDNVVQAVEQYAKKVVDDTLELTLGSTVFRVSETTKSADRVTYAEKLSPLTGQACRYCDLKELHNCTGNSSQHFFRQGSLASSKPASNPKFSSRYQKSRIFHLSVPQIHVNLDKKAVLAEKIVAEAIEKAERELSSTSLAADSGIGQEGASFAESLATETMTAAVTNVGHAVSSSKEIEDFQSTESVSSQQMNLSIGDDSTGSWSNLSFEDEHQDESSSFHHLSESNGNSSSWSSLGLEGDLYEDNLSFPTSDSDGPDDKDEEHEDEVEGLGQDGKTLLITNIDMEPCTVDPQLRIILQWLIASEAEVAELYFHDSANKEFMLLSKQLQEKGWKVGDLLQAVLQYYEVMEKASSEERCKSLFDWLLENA
UniProt Q9UBT2: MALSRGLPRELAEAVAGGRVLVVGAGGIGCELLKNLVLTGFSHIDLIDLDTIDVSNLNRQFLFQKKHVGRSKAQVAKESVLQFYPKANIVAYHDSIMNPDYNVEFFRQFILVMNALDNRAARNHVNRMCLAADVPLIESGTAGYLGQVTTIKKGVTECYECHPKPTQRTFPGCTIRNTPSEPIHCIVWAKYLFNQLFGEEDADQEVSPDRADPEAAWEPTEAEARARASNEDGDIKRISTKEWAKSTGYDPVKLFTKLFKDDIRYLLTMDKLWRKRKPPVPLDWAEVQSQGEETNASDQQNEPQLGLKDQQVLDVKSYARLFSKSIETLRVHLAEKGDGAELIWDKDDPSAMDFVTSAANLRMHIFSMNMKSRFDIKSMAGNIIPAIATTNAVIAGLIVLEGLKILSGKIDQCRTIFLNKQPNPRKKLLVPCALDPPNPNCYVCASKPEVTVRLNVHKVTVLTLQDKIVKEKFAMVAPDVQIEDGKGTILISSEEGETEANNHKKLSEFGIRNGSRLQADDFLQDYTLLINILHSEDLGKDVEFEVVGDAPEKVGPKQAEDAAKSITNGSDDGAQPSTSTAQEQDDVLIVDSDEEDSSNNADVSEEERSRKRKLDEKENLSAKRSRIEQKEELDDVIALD
UniProt Q9UIW2: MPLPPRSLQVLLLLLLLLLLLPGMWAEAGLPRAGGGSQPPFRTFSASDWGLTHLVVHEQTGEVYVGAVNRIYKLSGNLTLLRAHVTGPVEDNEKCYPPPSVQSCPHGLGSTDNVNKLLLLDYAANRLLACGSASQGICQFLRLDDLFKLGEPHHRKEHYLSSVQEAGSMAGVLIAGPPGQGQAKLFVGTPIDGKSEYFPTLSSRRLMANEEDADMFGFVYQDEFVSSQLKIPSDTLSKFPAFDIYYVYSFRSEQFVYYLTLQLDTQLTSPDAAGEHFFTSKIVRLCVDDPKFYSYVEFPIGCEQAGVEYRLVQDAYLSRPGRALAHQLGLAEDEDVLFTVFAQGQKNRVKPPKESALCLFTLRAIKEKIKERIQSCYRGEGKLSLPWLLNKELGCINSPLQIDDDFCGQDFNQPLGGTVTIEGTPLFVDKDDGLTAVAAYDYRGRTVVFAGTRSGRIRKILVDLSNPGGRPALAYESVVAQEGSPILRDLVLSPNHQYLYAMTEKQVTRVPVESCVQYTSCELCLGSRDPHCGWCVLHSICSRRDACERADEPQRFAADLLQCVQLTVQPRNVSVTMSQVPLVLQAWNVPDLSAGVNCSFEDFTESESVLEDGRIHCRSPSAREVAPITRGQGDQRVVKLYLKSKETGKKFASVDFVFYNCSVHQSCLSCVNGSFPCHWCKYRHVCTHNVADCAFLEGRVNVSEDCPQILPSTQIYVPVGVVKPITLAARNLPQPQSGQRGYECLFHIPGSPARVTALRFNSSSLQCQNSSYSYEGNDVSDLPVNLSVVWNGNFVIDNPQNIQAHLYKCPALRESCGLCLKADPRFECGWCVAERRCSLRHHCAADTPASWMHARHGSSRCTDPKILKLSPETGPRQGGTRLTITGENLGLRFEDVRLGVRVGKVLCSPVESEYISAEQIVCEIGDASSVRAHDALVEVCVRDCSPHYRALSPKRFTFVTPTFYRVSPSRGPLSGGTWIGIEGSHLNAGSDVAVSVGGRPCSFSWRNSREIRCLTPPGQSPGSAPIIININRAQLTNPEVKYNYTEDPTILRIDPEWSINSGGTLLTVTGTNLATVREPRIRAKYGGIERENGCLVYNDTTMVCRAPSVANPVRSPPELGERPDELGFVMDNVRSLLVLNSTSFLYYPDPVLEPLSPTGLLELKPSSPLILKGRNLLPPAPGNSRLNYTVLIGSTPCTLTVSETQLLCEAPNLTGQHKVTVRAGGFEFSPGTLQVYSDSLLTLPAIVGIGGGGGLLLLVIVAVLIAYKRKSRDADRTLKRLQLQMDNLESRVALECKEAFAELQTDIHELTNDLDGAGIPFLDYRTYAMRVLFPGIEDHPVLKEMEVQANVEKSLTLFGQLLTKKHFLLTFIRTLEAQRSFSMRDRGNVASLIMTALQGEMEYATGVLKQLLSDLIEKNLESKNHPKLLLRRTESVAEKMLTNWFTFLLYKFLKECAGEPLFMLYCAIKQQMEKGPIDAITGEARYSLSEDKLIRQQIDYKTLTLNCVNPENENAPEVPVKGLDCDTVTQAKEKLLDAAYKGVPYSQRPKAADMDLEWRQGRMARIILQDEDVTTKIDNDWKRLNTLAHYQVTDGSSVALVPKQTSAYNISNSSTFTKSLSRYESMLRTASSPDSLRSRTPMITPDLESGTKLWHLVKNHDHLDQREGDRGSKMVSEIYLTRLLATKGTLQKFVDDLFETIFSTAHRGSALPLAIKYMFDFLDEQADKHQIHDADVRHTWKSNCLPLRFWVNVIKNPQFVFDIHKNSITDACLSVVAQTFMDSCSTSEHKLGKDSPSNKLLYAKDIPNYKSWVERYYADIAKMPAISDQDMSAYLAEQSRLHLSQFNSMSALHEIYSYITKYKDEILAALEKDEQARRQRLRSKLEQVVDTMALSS
UniProt Q9P2W1: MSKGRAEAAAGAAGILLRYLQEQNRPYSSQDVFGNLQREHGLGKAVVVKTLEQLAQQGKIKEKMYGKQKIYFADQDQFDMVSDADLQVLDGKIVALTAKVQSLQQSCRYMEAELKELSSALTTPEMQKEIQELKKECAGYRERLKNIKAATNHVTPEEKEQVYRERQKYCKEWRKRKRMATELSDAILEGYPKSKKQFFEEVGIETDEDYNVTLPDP
UniProt Q9UBD5: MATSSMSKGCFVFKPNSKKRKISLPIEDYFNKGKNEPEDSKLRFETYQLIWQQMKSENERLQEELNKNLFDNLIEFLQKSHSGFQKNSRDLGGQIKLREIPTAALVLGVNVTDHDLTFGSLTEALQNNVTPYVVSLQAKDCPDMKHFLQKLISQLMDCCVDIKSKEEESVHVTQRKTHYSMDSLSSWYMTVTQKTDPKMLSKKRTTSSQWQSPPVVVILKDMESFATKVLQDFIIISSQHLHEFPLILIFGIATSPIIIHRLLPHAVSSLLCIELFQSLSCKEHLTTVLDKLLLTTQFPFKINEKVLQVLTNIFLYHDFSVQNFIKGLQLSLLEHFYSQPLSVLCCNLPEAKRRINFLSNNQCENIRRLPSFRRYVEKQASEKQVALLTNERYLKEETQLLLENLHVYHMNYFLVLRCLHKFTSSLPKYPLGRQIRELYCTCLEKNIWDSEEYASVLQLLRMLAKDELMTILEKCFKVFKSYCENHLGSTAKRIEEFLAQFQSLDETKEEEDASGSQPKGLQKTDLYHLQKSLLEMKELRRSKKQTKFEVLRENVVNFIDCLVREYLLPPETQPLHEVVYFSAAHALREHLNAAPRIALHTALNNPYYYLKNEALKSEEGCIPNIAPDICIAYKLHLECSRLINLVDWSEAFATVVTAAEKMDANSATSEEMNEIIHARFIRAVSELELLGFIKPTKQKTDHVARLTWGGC
UniProt Q9UQ90: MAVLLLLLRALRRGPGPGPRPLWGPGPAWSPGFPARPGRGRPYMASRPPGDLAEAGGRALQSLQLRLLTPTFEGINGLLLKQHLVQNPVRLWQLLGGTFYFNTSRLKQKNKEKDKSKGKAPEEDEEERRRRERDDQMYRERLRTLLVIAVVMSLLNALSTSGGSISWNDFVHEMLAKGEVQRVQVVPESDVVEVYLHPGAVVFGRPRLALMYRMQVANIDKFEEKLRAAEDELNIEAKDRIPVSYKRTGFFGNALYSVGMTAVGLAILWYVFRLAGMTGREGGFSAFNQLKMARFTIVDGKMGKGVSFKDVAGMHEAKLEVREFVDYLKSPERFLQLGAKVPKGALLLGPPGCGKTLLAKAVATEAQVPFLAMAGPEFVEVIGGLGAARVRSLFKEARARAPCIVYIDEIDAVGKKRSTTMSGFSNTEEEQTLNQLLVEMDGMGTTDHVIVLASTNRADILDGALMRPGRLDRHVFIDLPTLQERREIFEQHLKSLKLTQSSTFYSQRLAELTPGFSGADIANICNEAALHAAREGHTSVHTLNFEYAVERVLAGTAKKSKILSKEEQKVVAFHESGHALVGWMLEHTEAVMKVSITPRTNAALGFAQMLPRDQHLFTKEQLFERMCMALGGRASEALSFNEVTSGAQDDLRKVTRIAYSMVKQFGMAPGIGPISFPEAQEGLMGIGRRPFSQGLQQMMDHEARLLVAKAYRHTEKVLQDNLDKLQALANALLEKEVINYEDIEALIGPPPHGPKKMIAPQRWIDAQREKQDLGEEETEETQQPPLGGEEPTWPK
UniProt Q9UBK9, whole entry: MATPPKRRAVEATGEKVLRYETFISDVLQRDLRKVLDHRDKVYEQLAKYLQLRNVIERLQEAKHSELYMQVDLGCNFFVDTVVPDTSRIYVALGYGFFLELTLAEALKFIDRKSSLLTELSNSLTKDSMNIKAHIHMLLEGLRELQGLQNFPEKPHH

± gives the standard deviation of the averaged measurements. The entries are a selection whose mix differs from that of the whole data set.

Compound in the first assay: Nc1ncnc2c1ncn2[C@@H]1O[C@H](COP(=O)(O)OP(=O)(O)OP(=O)(O)O)[C@@H](O)[C@H]1O [adenosine triphosphate]
Nature of the assay: NP40-soluble protein abundance relative to vehicle (solubility fold change) (ratio); higher = more soluble protein in presence of ATP. The note with it: concentration: 1mM. The procedure, abridged:
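Values are fold changes against the detergent-processed vehicle, based on vsn-normalised intensities. Jurkat crude lysate was treated at eight concentrations from 0.1 to 10 mM (10 min at room temperature, then 3 min at 37 °C), solubilised with 0.8% NP40 and benzonase, ultracentrifuged and analysed by TMT-labelled LC-MS/MS over three independent experiments.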
Regarding CFDP1 (UniProt Q9UEE9), the NP40-soluble protein abundance stood at 0.878 ± 0.07.

Turning to RAB23 (UniProt Q9ULC3), the NP40-soluble protein abundance is 0.937 ± 0.069.

LRWD1 (UniProt Q9UFC0): the NP40-soluble protein abundance is 1.04 ± 0.039.

Regarding STUB1 (UniProt Q9UNE7), the NP40-soluble protein abundance was 0.958 ± 0.062.

For UniProt Q9UBH6 and related entries, the NP40-soluble protein abundance was 0.987 ± 0.028.

As for PFDN2 (UniProt Q9UHV9), the NP40-soluble protein abundance was found to be 0.89 ± 0.088.

Take UniProt Q9UKA8 and related entries: the NP40-soluble protein abundance was determined as 1.14 ± 0.33.

On to COPS7A (UniProt Q9UBW8), for which the NP40-soluble protein abundance stood at 1.01 ± 0.076.

Staying with this assay, now noted: concentration: 2mM.
Take UniProt Q9Y252: the NP40-soluble protein abundance was 1.06 ± 0.047.

With AKAP11 (UniProt Q9UKA4), the NP40-soluble protein abundance was 0.96 ± 0.036.

As for AK3 (UniProt Q9UIJ7), the NP40-soluble protein abundance was 0.933 ± 0.0096.

Consider UniProt Q9UBL3 and related entries, for which the NP40-soluble protein abundance came out at 1.02 ± 0.016.

On to “UniProt Q9UK53-2|A0A0C4DFW2|Q9UK53 and related entries”, for which the NP40-soluble protein abundance came out at 1.02 ± 0.043.

Regarding SEL1L (UniProt Q9UBV2), the NP40-soluble protein abundance was 0.96 ± 0.032.

Consider STX8 (UniProt Q9UNK0), for which the NP40-soluble protein abundance was determined as 0.917 ± 0.023.

As to UBA2 (UniProt Q9UBT2), the NP40-soluble protein abundance came to 0.958 ± 0.033.

Regarding USP24 (UniProt Q9UPU5), the NP40-soluble protein abundance came to 0.996 ± 0.048.

Take ZMYM2 (UniProt Q9UBW7): the NP40-soluble protein abundance is 0.974 ± 0.061.

Take RUVBL2 (UniProt Q9Y230): the NP40-soluble protein abundance was 1.09 ± 0.018.

With UniProt Q9UI30, the NP40-soluble protein abundance worked out at 0.995 ± 0.089.

Take GTF3C4 (UniProt Q9UKN8): the NP40-soluble protein abundance turned out to be 1.03 ± 0.015.

Take UniProt Q9UL03 and related entries: the NP40-soluble protein abundance came out at 1.1 ± 0.1.

As to PLXNA1 (UniProt Q9UIW2), the NP40-soluble protein abundance stood at 1.03 ± 0.07.

For PSMC3IP (UniProt Q9P2W1), the NP40-soluble protein abundance came to 1 ± 0.018.

As for ZMIZ1 (UniProt Q9ULJ6), the NP40-soluble protein abundance turned out to be 0.986 ± 0.16.

On to MTMR6 (UniProt Q9Y217), for which the NP40-soluble protein abundance came out at 0.962 ± 0.033.

With UniProt Q9UBD5 and related entries, the NP40-soluble protein abundance is 1.03 ± 0.024.

Turning to AMFR (UniProt Q9UKV5), the NP40-soluble protein abundance was 0.982 ± 0.041.

Take SPG7 (UniProt Q9UQ90): the NP40-soluble protein abundance turned out to be 1.08 ± 0.044.

With SEC63 (UniProt Q9UGP8), the NP40-soluble protein abundance was 1.01 ± 0.023.

Regarding UXT (UniProt Q9UBK9), the NP40-soluble protein abundance is 0.9287 ± 0.0048.

For the target UniProt Q9P2K3-3, the NP40-soluble protein abundance was 0.968 ± 0.043.

In the case of DPP7 (UniProt Q9UHL4), the NP40-soluble protein abundance is 1 ± 0.044.

Consider UniProt Q9ULH7-4|Q9ULH7-5, for which the NP40-soluble protein abundance was determined as 0.934 ± 0.025.

As for BCS1L (UniProt Q9Y276), the NP40-soluble protein abundance was 1.01 ± 0.1.

On to ZHX1 (UniProt Q9UKY1), for which the NP40-soluble protein abundance turned out to be 1.09 ± 0.036.

Regarding UniProt Q9UK41 and related entries, the NP40-soluble protein abundance was found to be 0.946 ± 0.0059.

Turning to CFDP1 (UniProt Q9UEE9), the NP40-soluble protein abundance amounted to 0.869 ± 0.032.

Consider RAB23 (UniProt Q9ULC3), for which the NP40-soluble protein abundance worked out at 0.99 ± 0.051.

On to LRWD1 (UniProt Q9UFC0), for which the NP40-soluble protein abundance is 1.03 ± 0.048.

For STUB1 (UniProt Q9UNE7), the NP40-soluble protein abundance was found to be 0.934 ± 0.049.

As to UniProt Q9UBH6 and related entries, the NP40-soluble protein abundance was found to be 0.98 ± 0.14.

In the case of PFDN2 (UniProt Q9UHV9), the NP40-soluble protein abundance came to 0.897 ± 0.092.

On to UniProt Q9UKA8 and related entries, for which the NP40-soluble protein abundance came out at 0.983 ± 0.13.

Turning to COPS7A (UniProt Q9UBW8), the NP40-soluble protein abundance is 1.03 ± 0.05.

Still in this assay, the particulars now being: concentration: 4mM.
For the target UniProt Q9Y252, the NP40-soluble protein abundance was 1.14 ± 0.038.

On to AKAP11 (UniProt Q9UKA4), for which the NP40-soluble protein abundance turned out to be 0.939 ± 0.017.

Take AK3 (UniProt Q9UIJ7): the NP40-soluble protein abundance was determined as 0.897 ± 0.012.

Regarding UniProt Q9UBL3 and related entries, the NP40-soluble protein abundance amounted to 0.986 ± 0.025.

Turning to “UniProt Q9UK53-2|A0A0C4DFW2|Q9UK53 and related entries”, the NP40-soluble protein abundance turned out to be 0.994 ± 0.057.

SEL1L (UniProt Q9UBV2): the NP40-soluble protein abundance worked out at 0.958 ± 0.034.

STX8 (UniProt Q9UNK0): the NP40-soluble protein abundance is 0.958 ± 0.032.

In the case of UBA2 (UniProt Q9UBT2), the NP40-soluble protein abundance is 0.927 ± 0.021.

USP24 (UniProt Q9UPU5): the NP40-soluble protein abundance was determined as 0.988 ± 0.065.

As to ZMYM2 (UniProt Q9UBW7), the NP40-soluble protein abundance came to 0.997 ± 0.038.

For the target RUVBL2 (UniProt Q9Y230), the NP40-soluble protein abundance was 1.077 ± 0.0088.

As to UniProt Q9UI30, the NP40-soluble protein abundance stood at 0.992 ± 0.1.

Take GTF3C4 (UniProt Q9UKN8): the NP40-soluble protein abundance amounted to 1.05 ± 0.012.

Turning to UniProt Q9UL03 and related entries, the NP40-soluble protein abundance was determined as 1.14 ± 0.096.

Consider PLXNA1 (UniProt Q9UIW2), for which the NP40-soluble protein abundance is 1.022 ± 0.0098.

For the target PSMC3IP (UniProt Q9P2W1), the NP40-soluble protein abundance is 0.952 ± 0.029.

Consider ZMIZ1 (UniProt Q9ULJ6), for which the NP40-soluble protein abundance amounted to 0.989 ± 0.11.

MTMR6 (UniProt Q9Y217): the NP40-soluble protein abundance was found to be 0.971 ± 0.049.

For the target UniProt Q9UBD5 and related entries, the NP40-soluble protein abundance came to 1.06 ± 0.039.

AMFR (UniProt Q9UKV5): the NP40-soluble protein abundance worked out at 0.998 ± 0.038.

Turning to SPG7 (UniProt Q9UQ90), the NP40-soluble protein abundance is 1.06 ± 0.033.

Consider SEC63 (UniProt Q9UGP8), for which the NP40-soluble protein abundance was 0.962 ± 0.05.

Regarding UXT (UniProt Q9UBK9), the NP40-soluble protein abundance stood at 0.86 ± 0.011.

With UniProt Q9P2K3-3, the NP40-soluble protein abundance worked out at 0.968 ± 0.048.

As for DPP7 (UniProt Q9UHL4), the NP40-soluble protein abundance was determined as 0.993 ± 0.026.

Turning to UniProt Q9ULH7-4|Q9ULH7-5, the NP40-soluble protein abundance is 0.931 ± 0.04.

Turning to BCS1L (UniProt Q9Y276), the NP40-soluble protein abundance stood at 1.01 ± 0.051.

For ZHX1 (UniProt Q9UKY1), the NP40-soluble protein abundance was found to be 1.08 ± 0.076.

As to UniProt Q9UK41 and related entries, the NP40-soluble protein abundance was 0.954 ± 0.0084.

Regarding CFDP1 (UniProt Q9UEE9), the NP40-soluble protein abundance was found to be 0.856 ± 0.046.

For RAB23 (UniProt Q9ULC3), the NP40-soluble protein abundance amounted to 0.954 ± 0.058.

For the target LRWD1 (UniProt Q9UFC0), the NP40-soluble protein abundance was found to be 1.02 ± 0.049.

As for STUB1 (UniProt Q9UNE7), the NP40-soluble protein abundance amounted to 0.934 ± 0.036.

Take UniProt Q9UBH6 and related entries: the NP40-soluble protein abundance is 0.952 ± 0.12.

Consider PFDN2 (UniProt Q9UHV9), for which the NP40-soluble protein abundance was determined as 0.885 ± 0.048.

With UniProt Q9UKA8 and related entries, the NP40-soluble protein abundance was 1.03 ± 0.14.

With COPS7A (UniProt Q9UBW8), the NP40-soluble protein abundance amounted to 0.986 ± 0.043.

Still in this assay, the particulars now being: concentration: 6mM.
Regarding UniProt Q9Y252, the NP40-soluble protein abundance is 1.13 ± 0.17.

On to AKAP11 (UniProt Q9UKA4), for which the NP40-soluble protein abundance amounted to 0.955 ± 0.11.

On to AK3 (UniProt Q9UIJ7), for which the NP40-soluble protein abundance was determined as 0.898 ± 0.04.

For UniProt Q9UBL3 and related entries, the NP40-soluble protein abundance stood at 1.02 ± 0.014.

On to “UniProt Q9UK53-2|A0A0C4DFW2|Q9UK53 and related entries”, for which the NP40-soluble protein abundance came out at 1.02 ± 0.12.

For SEL1L (UniProt Q9UBV2), the NP40-soluble protein abundance worked out at 0.947 ± 0.021.

Take STX8 (UniProt Q9UNK0): the NP40-soluble protein abundance stood at 0.947 ± 0.046.

In the case of UBA2 (UniProt Q9UBT2), the NP40-soluble protein abundance came to 0.943 ± 0.066.

As to USP24 (UniProt Q9UPU5), the NP40-soluble protein abundance is 0.965 ± 0.038.

Take ZMYM2 (UniProt Q9UBW7): the NP40-soluble protein abundance stood at 1.03 ± 0.081.

Take RUVBL2 (UniProt Q9Y230): the NP40-soluble protein abundance is 1.11 ± 0.041.

On to UniProt Q9UI30, for which the NP40-soluble protein abundance was determined as 1 ± 0.056.

With GTF3C4 (UniProt Q9UKN8), the NP40-soluble protein abundance amounted to 1.02 ± 0.024.

For UniProt Q9UL03 and related entries, the NP40-soluble protein abundance came out at 1.13 ± 0.18.

Regarding PLXNA1 (UniProt Q9UIW2), the NP40-soluble protein abundance worked out at 1 ± 0.075.

As to PSMC3IP (UniProt Q9P2W1), the NP40-soluble protein abundance worked out at 0.973 ± 0.061.

On to ZMIZ1 (UniProt Q9ULJ6), for which the NP40-soluble protein abundance was 0.959 ± 0.19.

Turning to MTMR6 (UniProt Q9Y217), the NP40-soluble protein abundance stood at 0.941 ± 0.082.

UniProt Q9UBD5 and related entries: the NP40-soluble protein abundance was 1.05 ± 0.026.

AMFR (UniProt Q9UKV5): the NP40-soluble protein abundance was determined as 0.991 ± 0.065.

For the target SPG7 (UniProt Q9UQ90), the NP40-soluble protein abundance is 1.07 ± 0.08.

For SEC63 (UniProt Q9UGP8), the NP40-soluble protein abundance is 0.999 ± 0.042.

For the target UXT (UniProt Q9UBK9), the NP40-soluble protein abundance stood at 0.91 ± 0.057.

Take UniProt Q9P2K3-3: the NP40-soluble protein abundance amounted to 1.04 ± 0.09.

For DPP7 (UniProt Q9UHL4), the NP40-soluble protein abundance stood at 0.947 ± 0.023.

Regarding UniProt Q9ULH7-4|Q9ULH7-5, the NP40-soluble protein abundance came to 0.958 ± 0.036.

BCS1L (UniProt Q9Y276): the NP40-soluble protein abundance was 0.914 ± 0.16.

As to ZHX1 (UniProt Q9UKY1), the NP40-soluble protein abundance was determined as 1.13 ± 0.057.

For UniProt Q9UK41 and related entries, the NP40-soluble protein abundance came to 0.958 ± 0.0072.

CFDP1 (UniProt Q9UEE9): the NP40-soluble protein abundance is 0.948 ± 0.028.

With RAB23 (UniProt Q9ULC3), the NP40-soluble protein abundance was found to be 0.947 ± 0.094.

Consider LRWD1 (UniProt Q9UFC0), for which the NP40-soluble protein abundance amounted to 1.02 ± 0.044.

STUB1 (UniProt Q9UNE7): the NP40-soluble protein abundance was found to be 0.927 ± 0.047.

Regarding UniProt Q9UBH6 and related entries, the NP40-soluble protein abundance came out at 0.933 ± 0.15.

For the target PFDN2 (UniProt Q9UHV9), the NP40-soluble protein abundance came to 0.97 ± 0.12.

Consider UniProt Q9UKA8 and related entries, for which the NP40-soluble protein abundance turned out to be 0.963 ± 0.018.

Consider COPS7A (UniProt Q9UBW8), for which the NP40-soluble protein abundance was found to be 1 ± 0.087.
